Reference: patent US20210253734A1
Results are given in words; binding and its absence hold for the method and conditions named. Some entries that bind do so weakly or less than the wild type.

Target: T1, NS-SPIK (Normal Secreted serine protease inhibitor Kazal), from the medium of pancreatic cells (human) (UniProt P00995)
T1 sequence: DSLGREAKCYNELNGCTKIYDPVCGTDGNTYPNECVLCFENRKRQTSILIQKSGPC
Assay: method not described

- binding: binds
B1: monoclonal antibody IM-S14 (antibody, V domains shown)
VH: EVKLVESGGGLVKPGGSLKVSCAASGFTFSSNAMSWVRQTPEKRLEWVASISSGGRIYYPDSVKGRFTISRDNARNILHLQMSSLRSEDTAMYYCARWVIYYDYDGAWFPYWGQGTLVTVSA
VL: NIVLTQSPASLAVSLGQRATISCRTSESVDSYGDSFMHWYQQKPGQPPKLLIYLASNLESGVPARFSGSGSRTDFTLTIDPVEADDAATYYCQQNNEDPTFGGGTKLEIK
